Values from PubChem BioAssay AID743121 (NCATS, 2013).
Aim: 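Genes whose silencing strengthens cell killing by camptothecin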 (primary screen). Cells: MDA-MB-231 cells, a human breast cancer line. Reagents: single siRNA against human genes, 20 nM siRNA (0.8 pmol per well). Timing: 120 h (drug added 48 h after transfection, read 72 h later). Challenge: camptothecin 20 nM (about EC30) for 72 h; vehicle 0.1% DMSO in parallel plates. Measured: 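CellTiter-Glo ATP signal, scaled to control siRNA as percent viability; sensitisation given as log2 of untreated divided by camptothecin-treated viability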. Direction: log2 vehicle/camptothecin viability: higher = stronger sensitisation to camptothecin. Call rule: 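Active genes have an RSA gene-level p-value below 0.001, computed from the ratios of their separate siRNAs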.
The whole screen tested about 26,000 reagents; shown is a random part of them. 167 of all reagents (0.63%) count as active. 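Calls are per gene from RSA p-values that are not deposited; an individual active-marked siRNA can sensitise only weakly.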 The numbers tell different reagents against one gene apart. Further read-outs or replicates are left out here.

HTR2A (GeneID 3356) #1 showed log2 vehicle/camptothecin viability -0.0562; inactive.
With knock-down of HTR2A (GeneID 3356) #2, the screen gave log2 vehicle/camptothecin viability -0.00702; inactive.
After knock-down of HTR2A (GeneID 3356) #3, the screen gave log2 vehicle/camptothecin viability -0.342; inactive.
HTR2A (GeneID 3356) #4 gave log2 vehicle/camptothecin viability 0.0986; inactive.
After knock-down of DNAI1 (GeneID 27019) #1 the results were log2 vehicle/camptothecin viability -0.374; inactive.
DNAI1 (GeneID 27019) #2 scored log2 vehicle/camptothecin viability -0.136; inactive.
DNAI1 (GeneID 27019) #3 gave log2 vehicle/camptothecin viability -0.11; inactive.
DNAI1 (GeneID 27019) #4 scored log2 vehicle/camptothecin viability 0.734; inactive.
Depletion of PRKCI (GeneID 5584) #1 came out at: log2 vehicle/camptothecin viability -0.351; inactive.
PRKCI (GeneID 5584) #2 gave log2 vehicle/camptothecin viability -0.179; inactive.
Against PRKCI (GeneID 5584) #3, the entry reads log2 vehicle/camptothecin viability -0.316; inactive.
PRKCI (GeneID 5584) #4 gave log2 vehicle/camptothecin viability -0.219; inactive.
With knock-down of ADGRF2P (GeneID 222611) #1, the screen gave log2 vehicle/camptothecin viability -0.243; inactive.
ADGRF2P (GeneID 222611) #2 gave log2 vehicle/camptothecin viability 0.0524; inactive.
After knock-down of ADGRF2P (GeneID 222611) #3, the screen gave log2 vehicle/camptothecin viability -0.214; inactive.
Against ADGRF2P (GeneID 222611) #4, the entry reads log2 vehicle/camptothecin viability 0.198; inactive.
Knock-down of BTNL8 (GeneID 79908) #1 resulted in: log2 vehicle/camptothecin viability -0.203; inactive.
Against BTNL8 (GeneID 79908) #2, the entry reads log2 vehicle/camptothecin viability -0.211; inactive.
For BTNL8 (GeneID 79908) #3 the deposit lists log2 vehicle/camptothecin viability 1.73; inactive.
With knock-down of BTNL8 (GeneID 79908) #4 the results were log2 vehicle/camptothecin viability -0.213; inactive.
Knock-down of MXD1 (GeneID 4084) #1 gave: log2 vehicle/camptothecin viability 0.247; inactive.
Against MXD1 (GeneID 4084) #2 the deposit lists log2 vehicle/camptothecin viability 0.21; inactive.
For MXD1 (GeneID 4084) #3, the values are log2 vehicle/camptothecin viability -0.57; inactive.
Depletion of MXD1 (GeneID 4084) #4 came out at: log2 vehicle/camptothecin viability 0.276; inactive.
For KTN1 (GeneID 3895) #1, the entry reads log2 vehicle/camptothecin viability 0.14; inactive.
After knock-down of KTN1 (GeneID 3895) #2, the screen gave log2 vehicle/camptothecin viability 0.0835; inactive.
Against KTN1 (GeneID 3895) #3, the entry reads log2 vehicle/camptothecin viability -0.569; inactive.
KTN1 (GeneID 3895) #4 gave log2 vehicle/camptothecin viability -0.246; inactive.
After knock-down of SLC1A5 (GeneID 6510) #1, the screen gave log2 vehicle/camptothecin viability 0.129; inactive.
Against SLC1A5 (GeneID 6510) #2, the values are log2 vehicle/camptothecin viability -0.208; inactive.
SLC1A5 (GeneID 6510) #3 gave log2 vehicle/camptothecin viability -0.439; inactive.
Knock-down of P2RY13 (GeneID 53829) #1 resulted in: log2 vehicle/camptothecin viability -0.277; inactive.
Against P2RY13 (GeneID 53829) #2, the entry reads log2 vehicle/camptothecin viability -0.0866; inactive.
With knock-down of P2RY13 (GeneID 53829) #3, the record shows log2 vehicle/camptothecin viability 0.0831; inactive.
Depletion of P2RY13 (GeneID 53829) #4 gave: log2 vehicle/camptothecin viability -0.268; inactive.
Knock-down of TEK (GeneID 7010) #1 resulted in: log2 vehicle/camptothecin viability -0.173; inactive.
Knock-down of TEK (GeneID 7010) #2 gave: log2 vehicle/camptothecin viability -0.748; inactive.
With knock-down of TEK (GeneID 7010) #3, the screen gave log2 vehicle/camptothecin viability -0.115; inactive.
Against TEK (GeneID 7010) #4 the deposit lists log2 vehicle/camptothecin viability 0.00224; inactive.
CCL23 (GeneID 6368) #1 scored log2 vehicle/camptothecin viability -0.64; inactive.
CCL23 (GeneID 6368) #2 scored log2 vehicle/camptothecin viability -0.0347; inactive.
Depletion of CCL23 (GeneID 6368) #3 resulted in: log2 vehicle/camptothecin viability -0.105; inactive.
KIF26A (GeneID 26153) #1 gave log2 vehicle/camptothecin viability 0.131; inactive.
Against KIF26A (GeneID 26153) #2, the entry reads log2 vehicle/camptothecin viability -0.28; inactive.
Against KIF26A (GeneID 26153) #3 the deposit lists log2 vehicle/camptothecin viability 0.0374; inactive.
KIF26A (GeneID 26153) #4 gave log2 vehicle/camptothecin viability -0.0509; inactive.

3 of these entries, set out differently:
SLC1A5 (GeneID 6510) #1
- log2 vehicle/camptothecin viability: 0.129
- activity call: inactive

SLC1A5 (GeneID 6510) #2
- log2 vehicle/camptothecin viability: -0.208
- activity call: inactive

SLC1A5 (GeneID 6510) #3
- log2 vehicle/camptothecin viability: -0.439
- activity call: inactive
